Results published in the supplement of paper PMC4604168 (melanoma cell lines).
The other results are listed elsewhere or left out. Many values rest on one well or one pass, so single values are uncertain.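 The apoptosis fraction was the count of cleaved-PARP antibody-stained nuclei relative to all DNA-stained nuclei, imaged in 1,536-well plates. Screening doses were set so most cells survived, and baseline and induced cleaved-PARP levels vary greatly across cell lines.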

Key:
Assay in all cases: cleaved PARP positive nuclei fraction relative to DMSO control; melanoma cells; higher = more apoptosis
Conditions in all cases: library dose: low library concentration; 72 h
COLO792 = test system: COLO792
COLO800 = test system: COLO800
COLO829 = test system: COLO829
G361 = test system: G361
IPC-298 = test system: IPC-298
IST-MEL1 = test system: IST-MEL1
LB2518-MEL = test system: LB2518-MEL
LOXIMVI = test system: LOXIMVI

SMILES	cleaved PARP positive nuclei fraction (COLO792) [%]	cleaved PARP positive nuclei fraction (COLO800) [%]	cleaved PARP positive nuclei fraction (COLO829) [%]	cleaved PARP positive nuclei fraction (G361) [%]	cleaved PARP positive nuclei fraction (IPC-298) [%]	cleaved PARP positive nuclei fraction (IST-MEL1) [%]	cleaved PARP positive nuclei fraction (LB2518-MEL) [%]	cleaved PARP positive nuclei fraction (LOXIMVI) [%]
NC(=O)c1ccc(N(C(N)=O)c2c(F)cccc2F)nc1-c1ccc(F)cc1F + Cn1cc(/C=C2\C(=O)Nc3cccnc32)c2ccccc21 [GW441756] (first compound 0.4 µM, partner dose 0.4 µM)	161	80.2	52.2	162	30.4	102	72.1	181
Cn1cnc2c(F)c(Nc3ccc(Br)cc3Cl)c(C(=O)NOCCO)cc21 [selumetinib] + COc1ccc2c(c1)CCC1C2CCC2(C)C(NCCCCCCN3C(=O)C=CC3=O)CCC12 [U73122] (first compound 0.015 µM, partner dose 0.4 µM)	143	87.9	186	47.8	165	330	364	133
CN(c1ncccc1CNc1nc(Nc2ccc3c(c2)CC(=O)N3)ncc1C(F)(F)F)S(C)(=O)=O + CCCCCCCCCCCC1=C(O)C(=O)C=C(O)C1=O [Embelin] (first compound 0.08 µM, partner dose 1.2 µM)	103	148	87.8	109	50	94.5	129	65.8
CS(=O)(=O)c1ccc(C(=O)Nc2ccc(Cl)c(-c3ccccn3)c2)c(Cl)c1 [vismodegib] + O=C1NC(=O)/C(=C/c2ccc(-c3ccc(F)cc3O)o2)S1 [AS252424] (first compound 1 µM, partner dose 1 µM)	78.7	60.6	115	65.3	47.7	88.9	138	224
COc1ccc(C2=N[C@@H](c3ccc(Cl)cc3)[C@@H](c3ccc(Cl)cc3)N2C(=O)N2CCNC(=O)C2)c(OC(C)C)c1 [Nutlin-3] + Oc1nc(-c2ccc(C(F)(F)F)cc2)nc2c1CSCC2 [XAV939] (first compound 0.1 µM, partner dose 2 µM)	127	78.5	58.5	294	136	99.8	59.5	84.6
COc1ccc(C2=N[C@@H](c3ccc(Cl)cc3)[C@@H](c3ccc(Cl)cc3)N2C(=O)N2CCNC(=O)C2)c(OC(C)C)c1 [Nutlin-3] + Cn1cc(/C=C2\C(=O)Nc3cccnc32)c2ccccc21 [GW441756] (first compound 0.1 µM, partner dose 0.4 µM)	104	55.1	150	75.1	130	65.1	69.7	149
C[C@]1(O)C[C@@H](c2nc(-c3ccc4ccc(-c5ccccc5)nc4c3)c3c(N)nccn32)C1 + COc1ccc2c(c1)CCC1C2CCC2(C)C(NCCCCCCN3C(=O)C=CC3=O)CCC12 [U73122] (first compound 0.4 µM, partner dose 0.4 µM)	122	131	60	122	32.7	182	115	257
CN(c1ncccc1CNc1nc(Nc2ccc3c(c2)CC(=O)N3)ncc1C(F)(F)F)S(C)(=O)=O + COC(=O)c1sccc1S(=O)(=O)Nc1ccc(Nc2ccccc2)cc1OC [GSK0660] (first compound 0.08 µM, partner dose 1 µM)	219	169	77.6	34.4	63.8	122	75.9	182
C[C@@H](N)c1ccc(C(=O)Nc2ccnc3[nH]ccc23)cc1 + CCc1ccc(CCOc2ccc(CC3SC(=O)NC3=O)cc2)nc1 [pioglitazone] (first compound 0.4 µM, partner dose 2 µM)	197	69.3	80.3	175	45.8	45.7	141	179
Cn1sc(=O)n(Cc2ccccc2)c1=O + Cc1cc([N+](=O)[O-])ccc1NS(=O)(=O)c1cc(Cl)ccc1Cl [FH535] (first compound 0.4 µM, partner dose 1 µM)	67.9	155	231	153	77.3	89.5	145	78.1
CCCCCCCCc1ccc(CCC(N)(CO)CO)cc1 [fingolimod] + CCCCCCCCCCCC1=C(O)C(=O)C=C(O)C1=O [Embelin] (first compound 2 µM, partner dose 1.2 µM)	114	123	71.5	107	90.2	113	68.2	116
C[C@]1(O)C[C@@H](c2nc(-c3ccc4ccc(-c5ccccc5)nc4c3)c3c(N)nccn32)C1 + O=C(O)C(=O)Nc1sc2c(c1C(=O)O)CCNC2 [TCS401] (first compound 0.4 µM, partner dose 1.66667 µM)	136	186	104	150	213	84	45.3	75.7
COc1ccc(C2=N[C@@H](c3ccc(Cl)cc3)[C@@H](c3ccc(Cl)cc3)N2C(=O)N2CCNC(=O)C2)c(OC(C)C)c1 [Nutlin-3] + COC(=O)c1sccc1S(=O)(=O)Nc1ccc(Nc2ccccc2)cc1OC [GSK0660] (first compound 0.1 µM, partner dose 1 µM)	137	168	162	140	187	107	42.1	71.7
CCCCCCCCc1ccc(CCC(N)(CO)CO)cc1 [fingolimod] + COC(=O)c1sccc1S(=O)(=O)Nc1ccc(Nc2ccccc2)cc1OC [GSK0660] (first compound 2 µM, partner dose 1 µM)	124	90.3	85.1	100	32.6	27.4	31.2	107
CC1(C)CCC(c2ccc(Cl)cc2)=C(CN2CCN(c3ccc(C(=O)NS(=O)(=O)c4ccc(N[C@H](CCN5CCOCC5)CSc5ccccc5)c(S(=O)(=O)C(F)(F)F)c4)cc3)CC2)C1 + O=C1NC(=O)/C(=C/c2ccc(-c3ccc(F)cc3O)o2)S1 [AS252424] (first compound 0.4 µM, partner dose 1 µM)	552	326	84.4	162	389	226	612	157
CN(c1ncccc1CNc1nc(Nc2ccc3c(c2)CC(=O)N3)ncc1C(F)(F)F)S(C)(=O)=O + c1cc(-c2cnn3cc(-c4ccc(OCCN5CCCCC5)cc4)cnc23)ccn1 [Dorsomorphin] (first compound 0.08 µM, partner dose 0.4 µM)	29.4	76.8	85.4	92.4	65.8	330	39.3	243
COc1ccc(C2=N[C@@H](c3ccc(Cl)cc3)[C@@H](c3ccc(Cl)cc3)N2C(=O)N2CCNC(=O)C2)c(OC(C)C)c1 [Nutlin-3] + COc1ccc2c(c1)CCC1C2CCC2(C)C(NCCCCCCN3C(=O)C=CC3=O)CCC12 [U73122] (first compound 0.1 µM, partner dose 0.4 µM)	41.4	92.4	88.9	105	84.5	146	88.9	57.7
CN(c1ncccc1CNc1nc(Nc2ccc3c(c2)CC(=O)N3)ncc1C(F)(F)F)S(C)(=O)=O + COc1cc(N2CCC(N3CCN(C)CC3)CC2)ccc1Nc1ncc(Cl)c(Nc2ccccc2S(=O)(=O)C(C)C)n1 [NVP-TAE684] (first compound 0.08 µM, partner dose 0.08 µM)	197	142	60.3	113	43.1	233	60.7	70
Cn1sc(=O)n(Cc2ccccc2)c1=O + COc1ccc(COc2ccc(Cc3cnc(N)nc3N)cc2OC)cc1 [GW2580] (first compound 0.4 µM, partner dose 1 µM)	88.6	166	237	29.9	91.1	50.4	71.7	199
Cn1cnc2c(F)c(Nc3ccc(Br)cc3Cl)c(C(=O)NOCCO)cc21 [selumetinib] + N#Cc1c(O)c2c(-c3ccc(-c4ccccc4O)cc3)csc2[nH]c1=O [A769662] (first compound 0.015 µM, partner dose 2 µM)	74.4	59.5	74.1	201	90.7	26.1	99.5	125
C[C@]1(O)C[C@@H](c2nc(-c3ccc4ccc(-c5ccccc5)nc4c3)c3c(N)nccn32)C1 + O=S(=O)(c1ccccc1)N(CC(F)(F)F)c1ccc(C(O)(C(F)(F)F)C(F)(F)F)cc1 [T0901317] (first compound 0.4 µM, partner dose 1.4 µM)	85.9	239	126	61.9	54.3	96.7	74.5	234
C[C@]1(O)C[C@@H](c2nc(-c3ccc4ccc(-c5ccccc5)nc4c3)c3c(N)nccn32)C1 + N#Cc1c(O)c2c(-c3ccc(-c4ccccc4O)cc3)csc2[nH]c1=O [A769662] (first compound 0.4 µM, partner dose 2 µM)	172	258	265	141	97.2	151	77.4	39.1
CC(=O)O[C@@]12CO[C@@H]1C[C@H](O)[C@@]1(C)C(=O)[C@H](O)C3=C(C)[C@@H](OC(=O)[C@H](O)[C@@H](NC(=O)OC(C)(C)C)c4ccccc4)C[C@@](O)([C@@H](OC(=O)c4ccccc4)[C@H]21)C3(C)C [Docetaxel] + O=C(O)C(=O)Nc1sc2c(c1C(=O)O)CCNC2 [TCS401] (first compound 0.0001 µM, partner dose 1.66667 µM)	777	632	441	448	147	168	95	143

A few values from above.
Entry of C[C@@H](N)c1ccc(C(=O)Nc2ccnc3[nH]ccc23)cc1 + CCc1ccc(CCOc2ccc(CC3SC(=O)NC3=O)cc2)nc1 [pioglitazone] (first compound 0.4 µM, partner dose 2 µM) under cleaved PARP positive nuclei fraction (LB2518-MEL) [%]: 141
Entry of CN(c1ncccc1CNc1nc(Nc2ccc3c(c2)CC(=O)N3)ncc1C(F)(F)F)S(C)(=O)=O + COc1cc(N2CCC(N3CCN(C)CC3)CC2)ccc1Nc1ncc(Cl)c(Nc2ccccc2S(=O)(=O)C(C)C)n1 [NVP-TAE684] (first compound 0.08 µM, partner dose 0.08 µM) under cleaved PARP positive nuclei fraction (COLO800) [%]: 142
